# Results from EP0478292A1, “Heterocyclic compounds” (THE WELLCOME FOUNDATION LIMITED, priority 1990, dated 1992).
# At least one structure is not confirmed: it was looked up by name or label, or the drawing left a doubt.
# Molecular target: T1, Purine nucleoside phosphorylase (PNPase) (Homo sapiens, UniProt P00491)
# T1 construct: Purine nucleoside phosphorylase (PNPase) was purified from human erythrocytes; from tissue; host or cells: human erythrocytes
# T1 sequence (P00491 1-289): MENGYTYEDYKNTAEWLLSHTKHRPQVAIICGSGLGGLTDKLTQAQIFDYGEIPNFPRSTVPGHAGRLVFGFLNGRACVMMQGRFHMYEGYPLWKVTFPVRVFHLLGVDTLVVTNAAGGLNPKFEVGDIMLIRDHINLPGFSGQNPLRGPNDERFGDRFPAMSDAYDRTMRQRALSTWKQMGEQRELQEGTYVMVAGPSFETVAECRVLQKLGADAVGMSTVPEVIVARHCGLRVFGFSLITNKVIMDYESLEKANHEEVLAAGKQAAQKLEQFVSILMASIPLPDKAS
# Assay: Inhibition of purine nucleoside phosphorylase, spectrophotometric assay of inosine phosphorolysis coupled with xanthine oxidase
# Type: biochemical
# Conditions: apparent inhibition constant calculated from percent inhibition at a single inhibitor concentration assuming competitive inhibition; PNPase from human erythrocytes; 0.1 mM inosine, 1 mM potassium phosphate, pH 7.5, 2µM ZnCl₂
# Procedure: Enzymology-Purine nucleoside phosphorylase (PNPase) was purified from human erythrocytes by the procedure of Agarwal et al (1). PNPase and xanthine oxidase were desalted before use (2). […] PNPase was assayed spectrophotometrically as previously described (2). In addition to PNPase, the reaction mixtures contained 0.1 mM inosine, 1 mM potassium phosphate, 100 mM Tris=HCl buffer (pH 7.5), 2µM ZnCl₂, and 0.2 U/ml of xanthine oxidase. […] The percent inhibition (%I) of PNP by a single concentration of inhibitor was measured (3).
compound,measurement,value
"Nc1nc2c(ncn2CCCCCCO[P+]([O-])=CP(=O)(O)O)c(=O)[nH]1 (stereo not shown) [Compound 3, (((6-(2-amino-1,6-dihydro-6-oxo-9H-purin-9-yl)hexyl)phosphinico)methyl)phosphonic acid]",Ki,3.1 nM
